According to PMC6172191:
Results are given in words; binding and its absence hold for the method and conditions named. In cells and extracts the contact can be indirect. A yes stands for co-enrichment or nearness to the bait. Other partners may have been found.

The chains behind the UniProt entries cited, without tags or fusion partners.
UniProt O75131: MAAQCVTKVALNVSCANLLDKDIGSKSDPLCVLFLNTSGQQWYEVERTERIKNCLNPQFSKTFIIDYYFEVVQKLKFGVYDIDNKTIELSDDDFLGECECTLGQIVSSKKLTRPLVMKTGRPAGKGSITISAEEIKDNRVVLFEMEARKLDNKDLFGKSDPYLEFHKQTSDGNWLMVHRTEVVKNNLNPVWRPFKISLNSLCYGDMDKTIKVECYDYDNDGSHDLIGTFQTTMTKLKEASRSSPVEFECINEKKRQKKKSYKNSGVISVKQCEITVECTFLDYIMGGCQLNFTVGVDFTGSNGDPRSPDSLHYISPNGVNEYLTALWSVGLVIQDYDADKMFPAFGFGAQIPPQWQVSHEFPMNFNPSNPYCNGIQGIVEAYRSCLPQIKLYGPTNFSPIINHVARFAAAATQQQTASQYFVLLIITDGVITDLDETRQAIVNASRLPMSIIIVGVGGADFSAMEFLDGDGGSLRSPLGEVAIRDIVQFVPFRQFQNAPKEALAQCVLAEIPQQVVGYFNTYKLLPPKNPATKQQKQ

Biological target: T1, EMP1 intracellular loop peptide (…) (human)
T1 sequence (peptide): FTMEKGNRF
Assay: affinity purification with mass spectrometry; peptide on CNBr-activated Sepharose 4B beads in LNCaP cell lysates, 16 h at 4 °C; SDS-PAGE, Coomassie, band excised, tandem mass spectrometry; uncoated beads as control; only the target purified

- binding: binds
Substance: copine-III (endogenous) (from UniProt O75131 1-537)
